The list shows a part of the results. These are further read-outs of the screen, such as a control signal, another cell line or another target. No call is given for them. Most of these compounds were active or inconclusive in the main read-out, so they are no random draw. The note in brackets gives the kind of curve behind each potency; many fits are weak.
Experiment: qHTS Assay to Find Inhibitors of Chronic Active B-Cell Receptor Signaling
Settings: ABC-DLBCL IkBa-CBG/CBR reporter, luminescence ratio (green luciferase fused to IkBa over red control in TMD8 lymphoma cells), 4 h
Outline: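 Concentration-response series (up to 46 uM) were applied to TMD8 dual-reporter cells for 4 h at 37C with doxycycline. Green/red ratio, after filter-overlap correction, defined %Activity; red signal alone was normalised to basal cells and zero luminescence.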

[1] = measured here: CBR red luminescence, cell number
[2] = measured here: IkBa-CBG green luminescence

Row | Compound | AC50 [1] | AC50 [2]
1 | c1ccc(-c2nnc(-c3c[nH]c4ccccc34)nc2-c2ccccc2)cc1 | 1.84 µM [rising, full curve, poor fit] | 
2 | Cc1ccc(NC(=O)CSc2ncnc3ccccc23)cc1S(=O)(=O)N1CCCCCC1 | 4.11 µM [falling, partial curve] | 
3 | CCCCCCOc1ccc(N2C(=O)CC(N(CCc3ccc(S(N)(=O)=O)cc3)C(C)=O)C2=O)cc1 (configuration not stated) | 12.6 µM [falling, partial curve] | 
4 | O=C(/C=C/c1ccccc1)NCCSCc1ccccc1Cl | 2.91 µM [rising, partial curve, poor fit] | 
5 | COc1ccccc1-c1nc(NC(C)=O)n[nH]1 | 10 µM [falling, partial curve] | 
6 | CCOC(=O)Cc1csc(N/N=C\c2ccc(N(C)C)cc2)n1 | 35.5 µM [rising, single point] | 
7 | O=C(CSC1=NS(=O)(=O)c2cc(Cl)ccc2N1)Nc1ccccc1F | 25.9 µM [falling, single point] | 
8 | Cn1c(SCC(=O)Nc2ccc3c(c2)oc2ccccc23)nnc1-c1ccccc1 | 1.64 µM [rising, partial curve, poor fit] | 
9 | COc1cc(/C=N/n2c(C3CCCCC3)n[nH]c2=S)cc(OC)c1O | 0.562 µM [rising, full curve, poor fit] | 
10 | COc1cccc(CN2CCN(Cc3nc4c(s3)CCCC4)CC2CCO)c1 (configuration not stated) | 35.5 µM [rising, single point] | 
11 | CC(C)NC(=O)C(=O)NCCc1ccc(Cl)cc1 | 7.31 µM [rising, partial curve, poor fit] | 
12 | C=CCc1cccc2cc(C(=O)NCc3ccc(C(=O)OCC)o3)c(=O)oc12 | 29.1 µM [rising, single point] | 
13 | Cc1cccc(N(Cc2ccccc2)C(=O)c2cccc(S(=O)(=O)N3CC(C)OC(C)C3)c2)c1 (configuration not stated) | 2.91 µM [falling, partial curve] | 
14 | CCOC(=O)NC(=S)c1ccc[nH]1 | 16.4 µM [rising, partial curve] | 
15 | c1ccc(Nc2scc(-c3ccccc3)[n+]2Cc2ccco2)cc1 | 35.5 µM [falling, single point] | 
16 | O=C(CNc1cccc2ccccc12)N/N=C/c1ccc([N+](=O)[O-])o1 | 0.184 µM [rising, full curve] | 
17 | Cc1n[nH]c(C)c1N1C(=O)c2cccc3c(N4CCCCCC4)ccc(c23)C1=O | 25.1 µM [falling, single point] | 
18 | Cc1nn(-c2ccccc2)c2nc(N)c(C#N)c(-c3ccc(O)c(O)c3)c12 | 3.16 µM [falling, full curve, poor fit] | 
19 | Cc1cc(Oc2ccc3ccccc3c2)nc(SCC(=O)c2ccccc2)n1 | 2.06 µM [rising, partial curve, poor fit] | 
20 | Cc1cc2cc3c(cc2nc1SCC(=O)OC(C)C)OCCO3 | 20.6 µM [falling, single point] | 

3 entries from above, arranged by molecular weight, rising:
Row | Compound | AC50 [1] | AC50 [2]
4 | O=C(/C=C/c1ccccc1)NCCSCc1ccccc1Cl | 2.91 µM [rising, partial curve, poor fit] | 
19 | Cc1cc(Oc2ccc3ccccc3c2)nc(SCC(=O)c2ccccc2)n1 | 2.06 µM [rising, partial curve, poor fit] | 
7 | O=C(CSC1=NS(=O)(=O)c2cc(Cl)ccc2N1)Nc1ccccc1F | 25.9 µM [falling, single point] | 

Remaining list, next part:

Row | Compound | AC50 [1] | AC50 [2]
21 | COC(=O)c1ccc(NC(=S)NN2CCCCC2c2cccnc2)cc1 (configuration not stated) | 12.6 µM [rising, partial curve, poor fit] | 
22 | CCOc1ccc(C(=O)Nc2ccc(Cc3ccncc3)cc2)cc1Br | 35.5 µM [falling, single point] | 
23 | Cc1cc(N2CCC(C)CC2)nc(SCC(=O)c2ccccc2)n1 | 6.51 µM [rising, single point] | 
24 | CC(=O)c1cccc(N2C(=NC(=O)CCc3ccccc3)SC3CS(=O)(=O)CC32)c1 (configuration not stated) | 35.5 µM [rising, single point] | 
25 | COc1ccccc1-c1n[nH]c(=S)n1-c1ccccc1 | 12.6 µM [falling, partial curve, poor fit] | 
26 | CNC(=S)N/N=C/c1cc(C)ccc1C | 11.2 µM [rising, partial curve, poor fit] | 35.5 µM [falling, single point]
27 | CCOP(=O)(OCC)/C(=N/OC(=O)c1ccccc1C)C(N)=O | 13 µM [falling, partial curve, poor fit] | 
28 | Cc1ccc(/C=N/NC(=O)CSc2ccccn2)o1 | 0.112 µM [rising, full curve, poor fit] | 
29 | CN(Cc1ccc(F)cc1)C(=O)COc1ccc2ccccc2c1 | 11.2 µM [falling, partial curve] | 
30 | CNC(=S)NNC(=O)c1cccn(Cc2ccc(Cl)c(Cl)c2)c1=O | 14.1 µM [rising, partial curve] | 
31 | CCN1C(=O)/C(=C\c2cccs2)C(C(=O)OC)=C1C | 2.59 µM [falling, partial curve, poor fit] | 
32 | CSCCC1NC(=O)N(CC(=O)N2N=C(c3ccc(Cl)cc3)CC2c2ccco2)C1=O (configuration not stated) | 35.5 µM [rising, single point] | 
33 | Cc1cc(C)cc(-n2c(SC(C)C(=O)NCc3ccc4c(c3)OCO4)nc3ccccc3c2=O)c1 (configuration not stated) | 18.4 µM [falling, single point] | 20.6 µM [rising, partial curve, poor fit]
34 | CC(=O)c1cc(C#N)c(Oc2cccc(C(F)(F)F)c2)nc1C | 5.01 µM [rising, partial curve] | 
35 | CCC(C)C(NC(=O)c1ccccc1NC(=O)c1ccccc1)C(=O)O (configuration not stated) | 10 µM [falling, partial curve] | 
36 | COc1ccccc1NC(=O)c1sc2nc(Cc3ccccc3)cc(C(F)(F)F)c2c1N | 6.51 µM [rising, single point] | 
37 | CC1=C(C(N)=O)C(c2cccc(C)c2)n2nc(-c3ccc(Cl)cc3)nc2N1 (configuration not stated) | 25.1 µM [falling, single point] | 
38 | c1ccc(C2c3[nH]c4ccccc4c3CCN2Cc2cccn2-c2ccccn2)nc1 (configuration not stated) | 31.6 µM [falling, single point] | 
39 | Cc1ccccc1OCC(=O)NNC(=O)c1ccc(-n2cncn2)c([N+](=O)[O-])c1 | 3.66 µM [rising, full curve, poor fit] | 
40 | CCOc1ccc(NC2=C(Cl)C(=O)N(Cc3ccccc3)C2=O)cc1 | 8.91 µM [falling, partial curve, poor fit] | 
